Assay results from paper PMC10747599 (Viruses, 2023).

Legend:
HBEC-5i cells = assay: MTT cell viability assay, HBEC-5i; conditions: 20 µM, 48 h
[1] = Confirmatory dose-response assay, cytotoxicity (CC50); conditions: African green monkey, Vero CCL81 cells

Question: What does the source list for `CCCCc1oc2ccccc2c1C(=O)c1cc(I)c(OCCN(CC)CC)c(I)c1` [Amiodarone]?
Answer: reduction in cell viability / toxicity (HBEC-5i cells): not toxic; CC50 at 72 h [1]: 25.7 µM
